This note sets out measurements from publication PMC4207663.

In the data set the test system is T1, RcoLS20-His(6) (Bacillus subtilis plasmid pLS20cat).
T1 sequence (looked up): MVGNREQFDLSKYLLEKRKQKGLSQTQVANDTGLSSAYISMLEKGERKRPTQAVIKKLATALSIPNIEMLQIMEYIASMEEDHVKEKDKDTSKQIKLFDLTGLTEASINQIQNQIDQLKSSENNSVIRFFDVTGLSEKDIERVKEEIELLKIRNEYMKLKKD
Kind of data set: DNase I footprinting. The settings on record: recombinant protein; residues 1-162; protein details: C-terminal His6; probe letters rebuilt from the primers and the genome.

Where a protein sequence is shown, tags need not be part of it.

As to “GATCCTATACCACCTCGCAAAATAAACCCTGTATACGGTCTAGCGCTTACAATTTTTCGCGTTTTTTTTACTCAGTGAAAAAAACCGGTTAAAAATTTCACTGAAATACTTTACAGTTAAAAAAATGTCTGTTATCTTAGTGAAAGAGTCAGTGAAAAAAATGCAGAATAAGGTTTTTTGTTGTTAATCTCAAACAATTTCTGTGTAAAAAGAACTAGAATTCAACTTTTGTTTTAACCAACGTATTCACTGTTGTCTCTGAAGTTTTAACTACCAGTTAATTTAACCGTATGTATGTGTATTAATCATACACTATCAAAGTGTGCTATCACAATGTAGTCAGTTAATAATAAGTTTAGTAAAAACAGGATAAGGGCCAAGCTTAATA (double strand) [Pc/Pr footprint fragment]”, the binding result is on record as “binds”.
